The record followed here is article PMC8802317.

Chains of the proteins cited; added tags and fusions are not shown.
UniProt Q13555: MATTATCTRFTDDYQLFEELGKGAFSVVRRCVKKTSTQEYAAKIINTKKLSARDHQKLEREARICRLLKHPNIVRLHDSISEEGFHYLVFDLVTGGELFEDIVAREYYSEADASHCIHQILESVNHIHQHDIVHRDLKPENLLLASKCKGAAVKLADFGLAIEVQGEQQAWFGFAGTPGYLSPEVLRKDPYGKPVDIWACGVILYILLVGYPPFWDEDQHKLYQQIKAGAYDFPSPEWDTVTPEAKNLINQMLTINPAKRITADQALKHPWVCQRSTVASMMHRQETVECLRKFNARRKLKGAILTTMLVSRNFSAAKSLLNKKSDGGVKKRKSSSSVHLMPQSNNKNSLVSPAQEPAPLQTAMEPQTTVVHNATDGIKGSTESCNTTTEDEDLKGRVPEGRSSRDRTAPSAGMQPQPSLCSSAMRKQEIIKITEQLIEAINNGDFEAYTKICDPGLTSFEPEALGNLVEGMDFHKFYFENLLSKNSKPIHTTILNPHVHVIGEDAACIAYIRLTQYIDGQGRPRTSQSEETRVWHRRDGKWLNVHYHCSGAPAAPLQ
UniProt Q13153: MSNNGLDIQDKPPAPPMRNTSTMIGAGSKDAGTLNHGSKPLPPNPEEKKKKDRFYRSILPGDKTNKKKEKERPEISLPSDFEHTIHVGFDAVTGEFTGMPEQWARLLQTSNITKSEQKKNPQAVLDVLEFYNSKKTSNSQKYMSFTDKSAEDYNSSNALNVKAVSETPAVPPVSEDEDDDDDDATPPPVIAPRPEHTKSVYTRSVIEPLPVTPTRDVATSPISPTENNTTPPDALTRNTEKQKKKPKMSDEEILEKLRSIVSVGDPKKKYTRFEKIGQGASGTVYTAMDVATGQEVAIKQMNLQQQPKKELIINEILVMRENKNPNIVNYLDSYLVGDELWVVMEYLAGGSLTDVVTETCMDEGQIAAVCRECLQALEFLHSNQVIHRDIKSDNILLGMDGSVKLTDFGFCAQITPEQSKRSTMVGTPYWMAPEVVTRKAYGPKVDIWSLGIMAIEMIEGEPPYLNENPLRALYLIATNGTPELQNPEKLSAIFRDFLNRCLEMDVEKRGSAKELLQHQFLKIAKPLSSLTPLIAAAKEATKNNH

These are yes or no findings as the source states them, for the method shown. In cells and extracts the contact can be indirect. Some entries that bind do so weakly or less than the wild type.

For this assay, the target named is GFP-tagged CaMKIIγ (Calcium/Calmodulin-dependent Protein Kinase II gamma) (UniProt Q13555). As to the kind of experiment: co-IP; HEK293T cells co-transfected with myc-Pak1 and GFP-CaMKII; lysis in PBSCM buffer (100 mM Na2PO4, 150 mM NaCl, pH 7.2, 1 mM CaCl2, 1 mM MgCl2, 5 µM ATP); IP with anti-GFP (reciprocal: anti-myc) for 4 h at 4°C, Protein G Sepharose; immunoblot. (A western blot detects proteins with antibodies after separation by electrophoresis.)

In the case of “myc-tagged Pak1 (p21-activated kinase 1) (from UniProt Q13153 1-545)”, the binding entry is on record as “binds”.
